Results: PubChem BioAssay AID540276 (National Center for Advancing Translational Sciences (NCATS), 2011)
Where “and” joins values, the source holds several entries; their conditions need not be identical. Equal entries are not always repeated. About 5,400 (1.8%) of roughly 300,000 compounds were called active. The shares of active, inactive and inconclusive entries below differ from those in the screen. Calls follow the shape of the full dose curve; tested in HEK293 cells. Where the call is inconclusive, the potency comes from a doubtful curve fit.

assay: qHTS for inhibitors of binding or entry into cells for Marburg Virus; details: Marburg virus pseudotyped entry inhibition, cell reporter; activity change, negative = inhibition: at 37.8 µM (top of the series) unless noted
% is scaled to controls: 0 for no effect and ±100 for the full control effect; potency is read from the fitted curve at half-maximal effect.

SMILES | Potency | activity change, negative = inhibition
O=C(NCc1ccccc1)c1ccc(/C=N/O)nc1 | inconclusive: 7.3 µM [activator, partial curve, poor fit] | 
CC(C)C(OC(=O)c1cccs1)C(=O)NCc1cccs1 (centres undefined) | inconclusive: 2.06 µM [inhibitor, partial curve, poor fit] | 
Cc1cc(C(=O)Cn2nc(C(=O)O)c3ccccc3c2=O)c(C)n1-c1cccc(C(F)(F)F)c1 | inactive | 
CC(=O)Nc1ccc(NC(=O)CSc2nc3c(=O)n(C)c(=O)n(C)c3n2C)cc1 | inactive | 
CCN(CC)S(=O)(=O)c1ccc(-c2nnc(SCC(=O)N3c4ccccc4CC3C)n2CC)cc1 (centres undefined) | inconclusive: 22.4 µM [inhibitor, single point] | 
CC(C)(C)N(Cc1ccccc1)C(=O)CCc1ccccc1 | inconclusive: 10 µM [inhibitor, partial curve, poor fit] | 
CCN(CC)c1ccc(/C=N/Nc2nc(C)cc(=O)[nH]2)cc1 | inactive | 
CCOc1cc2[nH]c(=O)n(CCCC(=O)NCc3ccco3)c(=O)c2cc1OCC | inconclusive: 4.11 µM [activator, single point] | 
CC1=CC(C)(C)NC(=S)N1c1ccccc1C | inconclusive: 35.5 µM [inhibitor, single point] | 
O=c1[nH]c2cc(Cl)c(Cl)cc2[nH]c1=O | inconclusive: 29.1 µM [activator, single point] | 
CN(c1ccccc1)S(=O)(=O)c1cccc(C(=O)OCC(=O)NCc2ccco2)c1 | inactive | 
COC(=O)CC1Oc2ccc(F)cc2-n2cc(-c3ccc(Cl)cc3)nc21 (centres undefined) | inactive | 
COc1ccc(-c2cnc(N)n2CC2CCCO2)cc1 (centres undefined) | inactive | 
COc1ccc(-n2nnnc2SCc2nc3ccccc3s2)cc1 | inconclusive: 2 µM [activator, partial curve, poor fit] | 
COc1ccc(-c2nc3c4cnn(-c5ccccc5F)c4ncn3n2)cc1 | inactive | 
O=c1cc(Cl)c(-c2ccccc2)nn1Cc1ccc(Cl)cc1 | inactive | 
Cc1ccc(NC(=O)c2cn(-c3cccc(C)n3)cn2)cc1 | inconclusive: 10 µM [activator, partial curve, poor fit] | 
CN(C(=O)COC(=O)c1cc2ccccc2cc1O)c1c(N)n(Cc2ccccc2)c(=O)[nH]c1=O | inactive | 
O=C(Nc1cccnc1)c1ccc([N+](=O)[O-])cc1Cl | inconclusive: 6.51 µM [activator, partial curve, poor fit] | 
CCOC(=O)c1c(C)[nH]c(C(=O)OCC(=O)Nc2cc(C)nn2-c2ccccc2)c1C | inconclusive: 35.5 µM [inhibitor, single point] | 
CC(C)(C)NC(=O)CN(Cc1cccs1)C(=O)C1COc2ccccc2O1 (centres undefined) | inactive | 
COc1ccc(-c2cc(C(F)(F)F)nc(-n3ccnc3C)n2)cc1 | inactive | 
COc1ccc(CC(=O)N2CCc3ccccc32)cc1 | inconclusive: 1.12 µM [activator, full curve, poor fit] | 

Quoted at random: 2 entries already listed
SMILES | Potency | activity change, negative = inhibition
O=c1cc(Cl)c(-c2ccccc2)nn1Cc1ccc(Cl)cc1 | inactive | 
Cc1cc(C(=O)Cn2nc(C(=O)O)c3ccccc3c2=O)c(C)n1-c1cccc(C(F)(F)F)c1 | inactive | 

Continued:

SMILES | Potency | activity change, negative = inhibition
O=C(Nc1cccc(-c2nc3ccccc3o2)c1)c1cc([N+](=O)[O-])ccc1N1CCOCC1 | inactive | 
Cc1ccc(Sc2ccc([N+](=O)[O-])cc2[N+](=O)[O-])nc1 | inconclusive: 10 µM [inhibitor, partial curve, poor fit] | 
Cc1cccc(N2C(=O)C3C4CC(=O)C(c5ccccc54)C3C2=O)c1C (centres undefined) | inconclusive: 18.3 µM [activator, single point] | 
CCC(C)(C)n1nnnc1C(c1cc2ccc(OC)cc2[nH]c1=O)N1CCc2ccccc21 (centres undefined) | inconclusive: 29.1 µM [inhibitor, single point] | 
CCCn1cc(S(=O)(=O)CC(=O)Nc2ccc(OCC)cc2)c2ccccc21 | inactive | 
CCOc1ccc(NC(=O)Nc2nnc(CC)s2)cc1 | inconclusive: 1.26 µM [activator, partial curve] | 
COc1ccc(CN(C(=O)c2cc3ccccc3oc2=O)C2CCS(=O)(=O)C2)cc1 (centres undefined) | inactive and inconclusive: 15.8 µM [activator, single point] | 
CC(COc1ccccc1)N1CCC(CO)(CCc2ccccc2)CC1 (centres undefined) | inconclusive: 6.31 µM [activator, single point] | 
CC(=O)Nc1ccc(NC(=O)CCc2c(C)noc2C)cc1 | inactive | 
Cc1ccnc(NC(=O)c2cc3ccccc3oc2=O)c1 | inconclusive: 0.112 µM [activator, full curve, poor fit] | 
COc1cc(OC)cc(C(=O)Nc2sc3c(c2C(N)=O)CCC3)c1 | inactive | 
O=C(CSc1nnnn1-c1ccccc1)NCCCN1CCCC1=O | inactive | 
Cc1cccc(OCCOC(=O)Nc2ccccc2)c1 | inactive | 
CCC(C)Nc1nc(N)c([N+](=O)[O-])c(Nc2ccccc2OC)n1 (centres undefined) | inactive | 
CCc1ccc(N(CC(=O)NC2CC2)S(=O)(=O)c2ccc(C)cc2)cc1 | inconclusive: 22.4 µM [inhibitor, single point] | 
NNc1nc2c(Cl)cccc2s1 | inconclusive: 7.31 µM [activator, partial curve, poor fit] | 
COCCC(=O)N1CCCC(C(=O)c2ccc(C(F)(F)F)cc2)C1 (centres undefined) | inactive | 
COc1ccccc1CNC(=O)CN1C(=O)NC(c2ccccc2)(c2ccc(C)c(C)c2)C1=O (centres undefined) | inconclusive: 25.1 µM [inhibitor, single point] | 
COc1cccc(/C=N\n2c(C)nnc2C)c1OC | inconclusive: 35.5 µM [activator, single point] | 
CCc1ccccc1N(C(=O)c1snc(C(N)=O)c1N)C(C(=O)NCC1CCCO1)c1c[nH]c2ccccc12 (centres undefined) | inconclusive: 35.5 µM [inhibitor, single point] | 
Cc1cc(C)cc(NC(=O)c2cccnc2)c1 | inactive | 
CCCOc1ccccc1N/C(=N/c1nc(C)cc(C)n1)NC(=O)COc1ccc(OC)cc1 | inconclusive: 14.1 µM [inhibitor, partial curve, poor fit] | 
CCN1CCN(C(=S)NC(CC(=O)c2ccccc2)c2ccccc2)CC1 (centres undefined) | inconclusive: 11.2 µM [inhibitor, partial curve, poor fit] | 

SMILES | Potency | activity change, negative = inhibition
Cc1ccc(C(c2nnnn2C(C)(C)C)N(Cc2ccco2)Cc2cccs2)cc1 (centres undefined) | inconclusive: 20 µM [inhibitor, partial curve, poor fit] | 
COc1ccccc1NC(=S)NC1CCCCC1 | inconclusive: 16.4 µM [activator, partial curve, poor fit] | 
O=C(COc1cc(Cl)c(Cl)cc1Cl)Nc1ccncc1 | inconclusive: 6.51 µM [inhibitor, full curve, poor fit] | 
CCOc1cc(/C=N/NC(=O)c2ccc(CN3CCOCC3)cc2)ccc1OCc1ccccc1 | inconclusive: 17.8 µM [inhibitor, partial curve, poor fit] | 
Nc1nonc1C(=O)NCCNCc1ccccc1OCc1ccc(F)cc1 | inconclusive: 29.1 µM [inhibitor, single point] | 
COc1ccc(CNc2oc(-c3ccc(COc4ccc(Cl)cc4)o3)nc2C#N)cc1 | inactive | 
COc1cc(O)ccc1C1CC(=O)Nc2c1c(=O)nc(SCc1ccccc1C)n2C (centres undefined) | inconclusive: 12.6 µM [activator, single point] | 
COc1ccc(-c2cc(-c3cccs3)c(C#N)c(SCC(=O)NCc3ccccc3OC)n2)cc1 | inconclusive: 0.562 µM [inhibitor, full curve, poor fit] | 
O=C(NC1CCN(Cc2ccc(Cl)cc2Cl)CC1)c1ccccc1 | inconclusive: 35.5 µM [inhibitor, single point] | 
CC1CCCC(NC(=O)COC(=O)CCSc2ccccc2)C1C (centres undefined) |  | inconclusive: 1.18% [activator] [at 46.1 µM]
O=C(COc1ccccc1[N+](=O)[O-])N1CCN(c2ccccn2)CC1 | inconclusive: 28.2 µM [activator, partial curve, poor fit] | 
CC(C)(C)C(=O)N1CCN(c2ccc([N+](=O)[O-])cc2-n2cccc2)CC1 | inconclusive: 2.82 µM [inhibitor, partial curve, poor fit] | 
COc1ccc(-c2cc(C(F)(F)F)nc(SCC(=O)N(C)Cc3ccccc3)n2)cc1OC | inconclusive: 22.4 µM [inhibitor, partial curve, poor fit] | 
CCOc1cnc(-c2c(-c3c(Cl)cccc3Cl)noc2C)o1 | inconclusive: 10 µM [inhibitor, partial curve, poor fit] | 
CCN1CCN(CCCNC(=O)c2cc3c(=O)n(CC)c4ccccc4c3s2)CC1 | inconclusive: 35.5 µM [inhibitor, single point] | 
Cc1c(CNCc2ccc(OC(C)C)cc2)c(C(=O)O)c(C)n1Cc1ccc(Cl)cc1 | inconclusive: 5.01 µM [inhibitor, partial curve, poor fit] | 
COc1ccc(CCNC(N)=S)cc1OC | inactive | 
Cc1ccc(/C=C2\SC(N)=NC2=O)s1 | inactive | 
Cc1cccc(N/N=C/c2ccccc2O)c1 | inconclusive: 3.55 µM [inhibitor, partial curve, poor fit] | 
Cc1ccc(OCC(=O)N/N=C\c2c(C)n(C)c3ccccc23)c([N+](=O)[O-])c1 | active: 10.3 µM | 
Cc1ccc(Cn2c(SCC(=O)NCC3CCCO3)nc3c(sc4ccccc43)c2=O)cc1 (centres undefined) | inconclusive: 6.51 µM [inhibitor, partial curve, poor fit] | 
CCOC(=O)NC(=O)/C(C#N)=N\Nc1cccc(OC)c1 | inconclusive: 5.62 µM [inhibitor, single point] | 

Some of the entries above in another layout.
Cc1cc(C(=O)Cn2nc(C(=O)O)c3ccccc3c2=O)c(C)n1-c1cccc(C(F)(F)F)c1
  Potency: inactive
CC1=CC(C)(C)NC(=S)N1c1ccccc1C
  Potency: inconclusive: 35.5 µM [inhibitor, single point]
O=c1cc(Cl)c(-c2ccccc2)nn1Cc1ccc(Cl)cc1
  Potency: inactive
COc1ccc(-c2cc(C(F)(F)F)nc(SCC(=O)N(C)Cc3ccccc3)n2)cc1OC
  Potency: inconclusive: 22.4 µM [inhibitor, partial curve, poor fit]
